Here are results for one substance from article PMC6451786.

Chains of the proteins cited; added tags and fusions are not shown. Residues count along the entry.
UniProt P27958, residues 1973-2420: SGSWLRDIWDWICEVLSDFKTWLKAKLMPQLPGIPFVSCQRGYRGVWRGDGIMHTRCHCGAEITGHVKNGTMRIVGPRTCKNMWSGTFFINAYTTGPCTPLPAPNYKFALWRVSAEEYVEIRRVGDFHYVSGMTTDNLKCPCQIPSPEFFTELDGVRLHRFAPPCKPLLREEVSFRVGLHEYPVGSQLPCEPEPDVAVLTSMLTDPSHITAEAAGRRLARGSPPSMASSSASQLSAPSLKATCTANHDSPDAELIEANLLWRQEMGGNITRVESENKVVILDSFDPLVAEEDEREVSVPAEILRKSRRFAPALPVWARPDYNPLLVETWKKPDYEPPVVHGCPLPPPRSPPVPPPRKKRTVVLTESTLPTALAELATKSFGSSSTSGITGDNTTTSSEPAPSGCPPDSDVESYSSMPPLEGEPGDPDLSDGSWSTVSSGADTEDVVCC

This assay has as its target T1, endogenous perilipin 5 (Plin5) of mouse primary hepatocytes (mouse (endogenous in primary hepatocytes)) (UniProt Q8BVZ1).
T1 sequence: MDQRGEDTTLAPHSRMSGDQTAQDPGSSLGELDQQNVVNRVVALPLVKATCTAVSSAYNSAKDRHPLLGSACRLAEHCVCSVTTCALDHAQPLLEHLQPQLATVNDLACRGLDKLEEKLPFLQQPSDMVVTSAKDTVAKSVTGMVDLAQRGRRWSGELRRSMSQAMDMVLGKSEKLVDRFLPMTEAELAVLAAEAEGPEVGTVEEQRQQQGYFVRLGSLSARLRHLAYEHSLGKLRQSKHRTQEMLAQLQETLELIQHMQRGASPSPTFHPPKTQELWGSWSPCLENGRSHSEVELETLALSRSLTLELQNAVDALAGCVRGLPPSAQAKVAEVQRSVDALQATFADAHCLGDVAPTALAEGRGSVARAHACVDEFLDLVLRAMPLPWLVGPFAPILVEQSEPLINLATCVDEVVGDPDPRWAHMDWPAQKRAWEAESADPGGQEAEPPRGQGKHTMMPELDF
Put plainly: co-IP; wild-type and Plin5-null mouse primary hepatocytes infected with NS5A adenovirus; endogenous Plin5 immunoprecipitated with anti-Plin5 antibody; NS5A detected by immunoblot with anti-HA. A general note: A western blot detects proteins with antibodies after separation by electrophoresis.

Results are given in words; binding and its absence hold for the method and conditions named. Binding seen in cells or lysates may run through a third protein. Some results given as binding are weak or reduced against the parent protein; the word gives no strength.

With “HA-tagged HCV non-structural protein 5A (NS5A), expressed from adenovirus (Ad-NS5A) in mouse primary hepatocytes (from UniProt P27958 1973-2420)”, the binding result is recorded as “binds”.
